Laboratory results taken from doi:10.1101/2021.05.31.446389.

Biological target: GST-tagged 14-3-3
Assay: pull-down

- binding: binds
B1: cellular USP8 (enzyme, UniProt P40818 1-1118)
chain: MPAVASVPKELYLSSSLKDLNKKTEVKPEKISTKSYVHSALKIFKTAEECRLDRDEERAYVLYMKYVTVYNLIKKRPDFKQQQDYFHSILGPGNIKKAVEEAERLSESLKLRYEEAEVRKKLEEKDRQEEAQRLQQKRQETGREDGGTLAKGSLENVLDSKDKTQKSNGEKNEKCETKEKGAITAKELYTMMTDKNISLIIMDARRMQDYQDSCILHSLSVPEEAISPGVTASWIEAHLPDDSKDTWKKRGNVEYVVLLDWFSSAKDLQIGTTLRSLKDALFKWESKTVLRNEPLVLEGGYENWLLCYPQYTTNAKVTPPPRRQNEEVSISLDFTYPSLEESIPSKPAAQTPPASIEVDENIELISGQNERMGPLNISTPVEPVAASKSDVSPIIQPVPSIKNVPQIDRTKKPAVKLPEEHRIKSESTNHEQQSPQSGKVIPDRSTKPVVFSPTLMLTDEEKARIHAETALLMEKNKQEKELRERQQEEQKEKLRKEEQEQKAKKKQEAEENEITEKQQKAKEEMEKKESEQAKKEDKETSAKRGKEITGVKRQSKSEHETSDAKKSVEDRGKRCPTPEIQKKSTGDVPHTSVTGDSGSGKPFKIKGQPESGILRTGTFREDTDDTERNKAQREPLTRARSEEMGRIVPGLPSGWAKFLDPITGTFRYYHSPTNTVHMYPPEMAPSSAPPSTPPTHKAKPQIPAERDREPSKLKRSYSSPDITQAIQEEEKRKPTVTPTVNRENKPTCYPKAEISRLSASQIRNLNPVFGGSGPALTGLRNLGNTCYMNSILQCLCNAPHLADYFNRNCYQDDINRSNLLGHKGEVAEEFGIIMKALWTGQYRYISPKDFKITIGKINDQFAGYSQQDSQELLLFLMDGLHEDLNKADNRKRYKEENNDHLDDFKAAEHAWQKHKQLNESIIVALFQGQFKSTVQCLTCHKKSRTFEAFMYLSLPLASTSKCTLQDCLRLFSKEEKLTDNNRFYCSHCRARRDSLKKIEIWKLPPVLLVHLKRFSYDGRWKQKLQTSVDFPLENLDLSQYVIGPKNNLKKYNLFSVSNHYGGLDGGHYTAYCKNAARQRWFKFDDHEVSDISVSSVKSSAAYILFYTSLGPRVTDVAT

These are yes or no findings as the source states them, for the method shown. In cells and extracts the contact can be indirect. Binding calls can cover weak binding; strength is not graded here.
